# The other results are listed elsewhere or left out.
# B1: Agalectin (Anopheles gambiae) (protein)
# chain: MSNRPFTAKFPRYPENGDEVFIRGKLKDDAKSFSVNFCLPRPAQVAEHQTPPYIALHFKTIYDERDDTSRVVLNWKNLQWQQEEVLDNYWHVDRSQTFRVVFRLHEDCIKVFVNSVDHPPDYQFPVQLPLDQIESIELWDDVEHVEEISFRYDNGNSY
# How the values were obtained:
# Experiment in all cases: glycan array binding signal (z-score within array); higher = stronger binding
# Settings in all cases: glycan notation: IUPAC condensed, linker removed
# [1] = target: Gal(a1-3)Gal(b1-4)GlcNAc(b1-2)Man
# How it was run: (§1)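 The binding signal is a Z-score computed within each array. Data were drawn from 3228 arrays in the Consortium for Functional Glycomics database, restricted to those with a known protein sequence. Scores were averaged over arrays of the same protein sequence at different concentrations or buffers, and over linkers, and negative values can be taken as non-binding.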
# [2] = target: Gal(a1-3)Gal(b1-4)GlcNAc(b1-2)Man(a1-3)[Gal(a1-3)Gal(b1-4)GlcNAc(b1-2)Man(a1-6)]Man(b1-4)GlcNAc(b1-4)GlcNAc
# How it was run: as §1
# [3] = target: Gal(a1-3)Gal(b1-4)GlcNAc(b1-3)GalNAc
# How it was run: as §1
# [4] = target: Gal(a1-3)Gal(b1-4)GlcNAc(b1-6)GalNAc
# How it was run: as §1
# [5] = target: Gal(a1-3)Gal(b1-4)[Fuc(a1-3)]GlcNAc
# How it was run: as §1
# [6] = target: Gal(a1-3)Gal(b1-4)[Fuc(a1-3)]GlcNAc(b1-2)Man(a1-3)[Gal(a1-3)Gal(b1-4)[Fuc(a1-3)]GlcNAc(b1-2)Man(a1-6)]Man(b1-4)GlcNAc(b1-4)GlcNAc
# How it was run: as §1
# Gal(a1-3)GalNAc = target: Gal(a1-3)GalNAc
# How it was run: as §1
# [7] = target: Gal(a1-3)[Gal(a1-4)]Gal(b1-4)GlcNAc
# How it was run: as §1
# [8] = target: Gal(a1-4)Gal(b1-3)GlcNAc(b1-2)Man(a1-3)[Gal(a1-4)Gal(b1-3)GlcNAc(b1-2)Man(a1-6)]Man(b1-4)GlcNAc(b1-4)GlcNAc
# How it was run: as §1
# Gal(a1-4)Gal(b1-4)Glc = target: Gal(a1-4)Gal(b1-4)Glc
# How it was run: as §1
# Gal(a1-4)Gal(b1-4)GlcNAc = target: Gal(a1-4)Gal(b1-4)GlcNAc
# How it was run: as §1
# [9] = target: Gal(a1-4)Gal(b1-4)GlcNAc(b1-2)Man(a1-3)[Gal(a1-4)Gal(b1-4)GlcNAc(b1-2)Man(a1-6)]Man(b1-4)GlcNAc(b1-4)GlcNAc
# How it was run: as §1
# [10] = target: Gal(a1-4)Gal(b1-4)GlcNAc(b1-3)Gal(b1-4)Glc
# How it was run: as §1
# Gal(a1-4)GlcNAc = target: Gal(a1-4)GlcNAc
# How it was run: as §1
# Gal(a1-6)Glc = target: Gal(a1-6)Glc
# How it was run: as §1
# Gal(b1-2)Gal = target: Gal(b1-2)Gal
# How it was run: as §1
# Gal(b1-3)Gal = target: Gal(b1-3)Gal
# How it was run: as §1
# Gal(b1-3)Gal(b1-4)GlcNAc = target: Gal(b1-3)Gal(b1-4)GlcNAc
# How it was run: as §1
# Gal(b1-3)GalNAc = target: Gal(b1-3)GalNAc
# How it was run: as §1
# [11] = target: Gal(b1-3)GalNAc(a1-3)[Fuc(a1-2)]Gal(b1-4)Glc
# How it was run: as §1
# [12] = target: Gal(b1-3)GalNAc(a1-3)[Fuc(a1-2)]Gal(b1-4)GlcNAc
# How it was run: as §1
# Gal(b1-3)GalNAc(b1-3)Gal = target: Gal(b1-3)GalNAc(b1-3)Gal
# How it was run: as §1
# [13] = target: Gal(b1-3)GalNAc(b1-3)Gal(a1-4)Gal(b1-4)Glc
# How it was run: as §1
# [14] = target: Gal(b1-3)GalNAc(b1-4)Gal(b1-4)Glc
# How it was run: as §1
# [15] = target: Gal(b1-3)GalNAc(b1-4)[Neu5Ac(a2-3)]Gal(b1-4)Glc
# How it was run: as §1
# Gal(b1-3)GlcNAc = target: Gal(b1-3)GlcNAc
# How it was run: as §1
# [16] = target: Gal(b1-3)GlcNAc(a1-3)Gal(b1-4)GlcNAc
# How it was run: as §1
# [17] = target: Gal(b1-3)GlcNAc(a1-6)Gal(b1-4)GlcNAc
# How it was run: as §1
# Gal(b1-3)GlcNAc(b1-2)Man = target: Gal(b1-3)GlcNAc(b1-2)Man
# How it was run: as §1
# [18] = target: Gal(b1-3)GlcNAc(b1-2)Man(a1-3)[Gal(b1-3)GlcNAc(b1-2)Man(a1-6)]Man(b1-4)GlcNAc(b1-4)GlcNAc
# How it was run: as §1
# [19] = target: Gal(b1-3)GlcNAc(b1-2)Man(a1-3)[Gal(b1-3)GlcNAc(b1-2)Man(a1-6)]Man(b1-4)GlcNAc(b1-4)[Fuc(a1-6)]GlcNAc
# How it was run: as §1
# [20] = target: Gal(b1-3)GlcNAc(b1-2)Man(a1-3)[GlcNAc(b1-4)][Gal(b1-3)GlcNAc(b1-2)Man(a1-6)]Man(b1-4)GlcNAc(b1-4)GlcNAc
# How it was run: as §1
# [21] = target: Gal(b1-3)GlcNAc(b1-2)[Gal(b1-3)GlcNAc(b1-6)]Man(a1-6)[Gal(b1-3)GlcNAc(b1-2)Man(a1-3)]Man(b1-4)GlcNAc(b1-4)GlcNAc
# How it was run: as §1
# [22] = target: Gal(b1-3)GlcNAc(b1-3)Gal(b1-3)GlcNAc
# How it was run: as §1
# [23] = target: Gal(b1-3)GlcNAc(b1-3)Gal(b1-4)Glc
# How it was run: as §1
# [24] = target: Gal(b1-3)GlcNAc(b1-3)Gal(b1-4)GlcNAc
# How it was run: as §1
# [25] = target: Gal(b1-3)GlcNAc(b1-3)Gal(b1-4)GlcNAc(b1-2)Man(a1-3)[Gal(b1-3)GlcNAc(b1-3)Gal(b1-4)GlcNAc(b1-2)Man(a1-6)]Man(b1-4)GlcNAc(b1-4)GlcNAc
# How it was run: as §1
# [26] = target: Gal(b1-3)GlcNAc(b1-3)Gal(b1-4)GlcNAc(b1-2)[Gal(b1-3)GlcNAc(b1-3)Gal(b1-4)GlcNAc(b1-6)]Man(a1-6)[Gal(b1-3)GlcNAc(b1-3)Gal(b1-4)GlcNAc(b1-2)Man(a1-3)]Man(b1-4)GlcNAc(b1-4)[Fuc(a1-6)]GlcNAc
# How it was run: as §1
# [27] = target: Gal(b1-3)GlcNAc(b1-3)Gal(b1-4)GlcNAc(b1-3)Gal(b1-4)GlcNAc(b1-2)[Gal(b1-3)GlcNAc(b1-3)Gal(b1-4)GlcNAc(b1-3)Gal(b1-4)GlcNAc(b1-6)]Man(a1-6)[Gal(b1-3)GlcNAc(b1-3)Gal(b1-4)GlcNAc(b1-3)Gal(b1-4)GlcNAc(b1-2)Man(a1-3)]Man(b1-4)GlcNAc(b1-4)[Fuc(a1-6)]GlcNAc
# How it was run: as §1
# [28] = target: Gal(b1-3)GlcNAc(b1-3)Gal(b1-4)GlcNAc(b1-6)[Gal(b1-3)GlcNAc(b1-3)]Gal(b1-4)Glc
# How it was run: as §1
# [29] = target: Gal(b1-3)GlcNAc(b1-3)Gal(b1-4)[Fuc(a1-3)]GlcNAc
# How it was run: as §1
# [30] = target: Gal(b1-3)GlcNAc(b1-3)Gal(b1-4)[Fuc(a1-3)]GlcNAc(b1-6)[Gal(b1-3)GlcNAc(b1-3)]Gal(b1-4)Glc
# How it was run: as §1
# [31] = target: Gal(b1-3)GlcNAc(b1-3)GalNAc
# How it was run: as §1
# [32] = target: Gal(b1-3)GlcNAc(b1-6)Gal(b1-4)GlcNAc
# How it was run: as §1
# [33] = target: Gal(b1-3)GlcNAc(b1-6)GalNAc
# How it was run: as §1
binder,measurement,setting,value
B1,glycan array binding signal (z-score),[1],-1.22
same,glycan array binding signal (z-score),[2],-0.089
same,glycan array binding signal (z-score),[3],0.984
same,glycan array binding signal (z-score),[4],-0.29
same,glycan array binding signal (z-score),[5],-0.066
same,glycan array binding signal (z-score),[6],1.57
same,glycan array binding signal (z-score),Gal(a1-3)GalNAc,-0.055
same,glycan array binding signal (z-score),[7],0.67
same,glycan array binding signal (z-score),[8],2.28
same,glycan array binding signal (z-score),Gal(a1-4)Gal(b1-4)Glc,1.32
same,glycan array binding signal (z-score),Gal(a1-4)Gal(b1-4)GlcNAc,0.962
same,glycan array binding signal (z-score),[9],1.25
same,glycan array binding signal (z-score),[10],-0.266
same,glycan array binding signal (z-score),Gal(a1-4)GlcNAc,-1
same,glycan array binding signal (z-score),Gal(a1-6)Glc,-1.62
same,glycan array binding signal (z-score),Gal(b1-2)Gal,-0.857
same,glycan array binding signal (z-score),Gal(b1-3)Gal,-0.407
same,glycan array binding signal (z-score),Gal(b1-3)Gal(b1-4)GlcNAc,-0.246
same,glycan array binding signal (z-score),Gal(b1-3)GalNAc,-0.47
same,glycan array binding signal (z-score),[11],-0.559
same,glycan array binding signal (z-score),[12],-0.342
same,glycan array binding signal (z-score),Gal(b1-3)GalNAc(b1-3)Gal,-0.485
same,glycan array binding signal (z-score),[13],0.19
same,glycan array binding signal (z-score),[14],0.548
same,glycan array binding signal (z-score),[15],-0.365
same,glycan array binding signal (z-score),Gal(b1-3)GlcNAc,-0.601
same,glycan array binding signal (z-score),[16],0.161
same,glycan array binding signal (z-score),[17],0.131
same,glycan array binding signal (z-score),Gal(b1-3)GlcNAc(b1-2)Man,0.195
same,glycan array binding signal (z-score),[18],1.66
same,glycan array binding signal (z-score),[19],1.18
same,glycan array binding signal (z-score),[20],0.353
same,glycan array binding signal (z-score),[21],0.139
same,glycan array binding signal (z-score),[22],0.735
same,glycan array binding signal (z-score),[23],-0.539
same,glycan array binding signal (z-score),[24],-0.854
same,glycan array binding signal (z-score),[25],-1.04
same,glycan array binding signal (z-score),[26],3.14
same,glycan array binding signal (z-score),[27],1.51
same,glycan array binding signal (z-score),[28],-0.383
same,glycan array binding signal (z-score),[29],1.52
same,glycan array binding signal (z-score),[30],-0.874
same,glycan array binding signal (z-score),[31],-0.394
same,glycan array binding signal (z-score),[32],0.088
same,glycan array binding signal (z-score),[33],-0.037

# Looked up one by one from the list above (2):
binder,measurement,setting,value
B1,glycan array binding signal (z-score),[2],-0.089
same,glycan array binding signal (z-score),Gal(b1-3)GlcNAc,-0.601
